Publication PMC4893664
Results are given in words; binding and its absence hold for the method and conditions named. Binding seen in cells or lysates may run through a third protein. A result given as binding can be weak or reduced; the word gives no strength. Tags and fused reporters may be left off the sequences shown.

Biological target: DYNC1I1-GFP (cytoplasmic dynein intermediate chain DYNC1I1, GFP-tagged)
Experiment: co-IP; co-immunoprecipitation of DYNC1I1-GFP and NDE1-MYC in the presence or absence of co-transfected MCRS1-FLAG; resin for this experiment not told (methods name anti-FLAG M2 affinity gel or GFP-Trap)

B1: NDE1-MYC (protein, UniProt Q9NXR1 1-335)
chain: MEDSGKTFSSEEEEANYWKDLAMTYKQRAENTQEELREFQEGSREYEAELETQLQQIETRNRDLLSENNRLRMELETIKEKFEVQHSEGYRQISALEDDLAQTKAIKDQLQKYIRELEQANDDLERAKRATIMSLEDFEQRLNQAIERNAFLESELDEKENLLESVQRLKDEARDLRQELAVQQKQEKPRTPMPSSVEAERTDTAVQATGSVPSTPIAHRGPSSSLNTPGSFRRGLDDSTGGTPLTPAARISALNIVGDLLRKVGALESKLASCRNLVYDQSPNRTGGPASGRSSKNRDGGERRPSSTSVPLGDKGLDTSCRWLSKSTTRSSSSC
- binding: binds
